Data source: PubChem BioAssay AID602196 (INSERM, 2012)
The deposit covers about 23,000 reagents; this is a random part of them. Of all reagents, 455 (2%) were called active. 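Active includes both protection and sensitisation; some change values fall well beyond the stated -50 to +50 range.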 The numbers tell different reagents against one gene apart. Not all columns of the deposit are shown. Not given: the amount of reagent.

- Aim: 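Genes whose knock-down alters cisplatin killing of lung cancer cells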
- Cells: human A549 lung cancer cells
- Reagents: siRNA pair against human genes
- Time to read-out: 48 h transfection before cisplatin; time from cisplatin to read-out not stated
- Conditions: cisplatin at a dose killing half of control-siRNA cells; exact dose and duration not given
- Measured: 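Shift in cisplatin death relative to control siRNA, from -50 (all cells die) to +50 (no cells die); siRNAs harmful on their own scored 0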
- Scale: two-siRNA summed score (-2 to +2): higher = both siRNAs protect from cisplatin killing; -2 means both sensitise
- Active means: 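siRNAs harmful alone (LDH or WST-1) get 0; others get +1 for less and -1 for more cisplatin killing; genes are active when the two siRNAs give the same sign, summing to ±2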
- Calls: active = both siRNAs shift cisplatin killing the same way; inactive = no consistent shift, or siRNA harmful alone

LOC391282 gave two-siRNA summed score (-2 to +2) = 0; inactive.
ELAVL4 gave two-siRNA summed score (-2 to +2) = 0; inactive.
With knock-down of HBG1, the record shows two-siRNA summed score (-2 to +2) = 0; inactive.
Knock-down of LOC440839 resulted in: two-siRNA summed score (-2 to +2) = 0; inactive.
Against USP28 the deposit lists two-siRNA summed score (-2 to +2) = 0; inactive.
SLC68A1 gave two-siRNA summed score (-2 to +2) = -1; inactive.
Knock-down of SYNPO2L gave: two-siRNA summed score (-2 to +2) = 0; inactive.
With knock-down of CALN1 #1 the results were two-siRNA summed score (-2 to +2) = 0; inactive.
Depletion of CALN1 #2 came out at: two-siRNA summed score (-2 to +2) = 0; inactive.
COP1 scored two-siRNA summed score (-2 to +2) = 0; inactive.
With knock-down of CFAP92 the results were two-siRNA summed score (-2 to +2) = 0; inactive.
Against ZNF660, the entry reads two-siRNA summed score (-2 to +2) = 1; inactive.
With knock-down of LOC389689 the results were two-siRNA summed score (-2 to +2) = 0; inactive.
SLC35B2 showed two-siRNA summed score (-2 to +2) = -1; inactive.
With knock-down of ZSCAN31, the screen gave two-siRNA summed score (-2 to +2) = 0; inactive.

Entries listed so far whose gene name starts with S or s:
SLC68A1 | two-siRNA summed score (-2 to +2): -1; activity call: inactive
SYNPO2L | two-siRNA summed score (-2 to +2): 0; activity call: inactive
SLC35B2 | two-siRNA summed score (-2 to +2): -1; activity call: inactive

The results go on.
LOC391833 gave two-siRNA summed score (-2 to +2) = 0; inactive.
Against EPN2 the deposit lists two-siRNA summed score (-2 to +2) = -1; inactive.
For NOPCHAP1, the entry reads two-siRNA summed score (-2 to +2) = 0; inactive.
Knock-down of PIK3C2B gave: two-siRNA summed score (-2 to +2) = 2; active.
LRATD2 scored two-siRNA summed score (-2 to +2) = 0; inactive.
With knock-down of MCAT the results were two-siRNA summed score (-2 to +2) = 0; inactive.
After knock-down of EEPD1, the record shows two-siRNA summed score (-2 to +2) = 0; inactive.
For HTR7 the deposit lists two-siRNA summed score (-2 to +2) = -1; inactive.
After knock-down of MLH3, the screen gave two-siRNA summed score (-2 to +2) = 0; inactive.
HK3 gave two-siRNA summed score (-2 to +2) = 1; inactive.
After knock-down of NICN1, the record shows two-siRNA summed score (-2 to +2) = 0; inactive.
Depletion of PTPN1 gave: two-siRNA summed score (-2 to +2) = 0; inactive.
For GRHL3, the entry reads two-siRNA summed score (-2 to +2) = 0; inactive.
Silencing of SLC26A10P resulted in: two-siRNA summed score (-2 to +2) = 0; inactive.
With knock-down of LRRN1, the record shows two-siRNA summed score (-2 to +2) = 0; inactive.
CXXC1 showed two-siRNA summed score (-2 to +2) = 0; inactive.
